Holding throughout (assay): affinity purification with mass spectrometry; lysates of cryo-milled worms expressing the GFP-tagged protein (lysis buffer with Tris-HCl pH 8.0, NaCl, Triton-X100, glycerol); homemade anti-GFP beads, 1 h at 4°C; eluted with glycine-HCl pH 2.5; LC-MS/MS; hits ranked by WD-score against 71 unrelated IP-MS samples
In assay [1] the target is T1, PAN-1^GFP (pan-1^GFP knock-in allele ybq47) (C. elegans) (UniProt Q9U3A0).
T1 sequence: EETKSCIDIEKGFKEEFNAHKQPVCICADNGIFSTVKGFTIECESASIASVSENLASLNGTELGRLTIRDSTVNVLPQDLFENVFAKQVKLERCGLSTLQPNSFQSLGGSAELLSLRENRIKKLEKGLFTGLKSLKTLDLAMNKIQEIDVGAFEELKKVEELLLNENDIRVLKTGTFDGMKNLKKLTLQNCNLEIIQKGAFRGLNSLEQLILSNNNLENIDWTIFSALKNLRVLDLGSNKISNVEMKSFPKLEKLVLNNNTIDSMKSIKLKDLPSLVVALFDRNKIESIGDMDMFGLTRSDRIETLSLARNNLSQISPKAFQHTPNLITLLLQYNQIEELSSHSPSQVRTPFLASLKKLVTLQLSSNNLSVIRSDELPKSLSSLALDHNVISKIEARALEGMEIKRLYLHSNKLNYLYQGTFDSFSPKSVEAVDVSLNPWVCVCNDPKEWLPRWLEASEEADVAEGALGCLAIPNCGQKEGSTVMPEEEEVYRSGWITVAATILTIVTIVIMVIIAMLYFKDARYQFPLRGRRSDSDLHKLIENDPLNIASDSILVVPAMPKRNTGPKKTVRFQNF

The chains behind the UniProt entries cited, without tags or fusion partners. Where a name states a change or a piece, a line headed by the entry shows the natural chain unless it says otherwise.
UniProt D9PTN5: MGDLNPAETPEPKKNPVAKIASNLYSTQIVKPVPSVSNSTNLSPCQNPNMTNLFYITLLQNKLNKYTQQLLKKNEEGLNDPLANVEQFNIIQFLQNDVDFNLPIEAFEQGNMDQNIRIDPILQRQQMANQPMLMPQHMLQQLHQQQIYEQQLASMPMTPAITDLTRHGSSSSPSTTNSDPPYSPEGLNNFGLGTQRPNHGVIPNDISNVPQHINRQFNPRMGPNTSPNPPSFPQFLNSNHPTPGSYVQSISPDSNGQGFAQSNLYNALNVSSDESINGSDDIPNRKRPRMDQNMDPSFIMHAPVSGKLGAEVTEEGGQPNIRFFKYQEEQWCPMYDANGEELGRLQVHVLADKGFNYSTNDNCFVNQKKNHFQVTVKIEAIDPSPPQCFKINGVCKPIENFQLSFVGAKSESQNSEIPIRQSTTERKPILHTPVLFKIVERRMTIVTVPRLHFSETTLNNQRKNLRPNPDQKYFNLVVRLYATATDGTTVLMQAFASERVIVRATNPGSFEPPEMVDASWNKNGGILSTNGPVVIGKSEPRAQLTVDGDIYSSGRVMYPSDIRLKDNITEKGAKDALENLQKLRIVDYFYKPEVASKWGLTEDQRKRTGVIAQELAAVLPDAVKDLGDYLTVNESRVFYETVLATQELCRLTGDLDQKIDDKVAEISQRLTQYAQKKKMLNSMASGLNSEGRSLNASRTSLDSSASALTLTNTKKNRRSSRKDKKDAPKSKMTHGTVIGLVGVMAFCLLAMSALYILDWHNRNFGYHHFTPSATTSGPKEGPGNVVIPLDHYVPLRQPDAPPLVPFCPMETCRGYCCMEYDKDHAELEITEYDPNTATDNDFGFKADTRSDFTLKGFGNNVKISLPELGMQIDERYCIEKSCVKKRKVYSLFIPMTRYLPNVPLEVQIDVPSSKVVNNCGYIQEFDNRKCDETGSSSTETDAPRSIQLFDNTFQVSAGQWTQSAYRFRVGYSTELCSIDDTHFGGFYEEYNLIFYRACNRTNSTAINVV

For assay [2], the target named is T2, GFP::MYRF-1::Flag (transgene myrf-1pro-GFP::myrf-1::Flag, ybqEx164) (C. elegans) (UniProt G5EFI7).
T2 sequence: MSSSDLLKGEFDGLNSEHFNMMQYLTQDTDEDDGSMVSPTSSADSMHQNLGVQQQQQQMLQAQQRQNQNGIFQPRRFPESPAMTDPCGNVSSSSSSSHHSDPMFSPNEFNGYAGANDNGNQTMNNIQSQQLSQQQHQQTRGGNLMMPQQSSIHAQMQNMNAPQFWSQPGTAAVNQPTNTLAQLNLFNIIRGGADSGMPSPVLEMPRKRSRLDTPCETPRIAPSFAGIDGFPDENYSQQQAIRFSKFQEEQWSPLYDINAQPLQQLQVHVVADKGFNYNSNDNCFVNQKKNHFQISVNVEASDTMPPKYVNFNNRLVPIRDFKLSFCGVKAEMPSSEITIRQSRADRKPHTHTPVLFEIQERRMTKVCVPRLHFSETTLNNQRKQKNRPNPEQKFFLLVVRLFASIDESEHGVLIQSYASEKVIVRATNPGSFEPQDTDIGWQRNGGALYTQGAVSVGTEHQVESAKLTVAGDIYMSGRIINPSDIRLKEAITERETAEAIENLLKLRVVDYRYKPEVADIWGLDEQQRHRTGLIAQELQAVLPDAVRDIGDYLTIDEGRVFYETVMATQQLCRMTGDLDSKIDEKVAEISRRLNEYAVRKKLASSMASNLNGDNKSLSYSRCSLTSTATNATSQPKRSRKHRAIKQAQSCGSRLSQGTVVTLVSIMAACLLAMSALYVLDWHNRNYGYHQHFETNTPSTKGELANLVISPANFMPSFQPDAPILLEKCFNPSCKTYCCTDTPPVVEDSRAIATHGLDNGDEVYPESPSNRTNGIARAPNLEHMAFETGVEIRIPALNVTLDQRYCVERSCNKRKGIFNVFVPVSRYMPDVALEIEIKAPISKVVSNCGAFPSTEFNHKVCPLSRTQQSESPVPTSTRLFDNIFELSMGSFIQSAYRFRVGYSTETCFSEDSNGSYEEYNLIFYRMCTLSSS

The target in assay [3] is GFP::MYRF-2 (transgene myrf-2pro-GFP::myrf-2, ybqIs128) (C. elegans) (UniProt D9PTN5).

These are yes or no findings as the source states them, for the method shown. In cells and extracts the contact can be indirect. Here binding means that the protein was enriched with, or labelled near, the bait; the list need not be complete. For some of these results: Tags and fused reporters may be left off the sequences shown.

With “MYRF-2, endogenous (from UniProt D9PTN5-4)”, in assay [1], the binding result is given as “binds”.

B1: PAN-1 (M88.6), endogenous (protein, UniProt Q9U3A0 19-594)
chain: T1 sequence
As for B1, the binding result in assay [2] and in assay [3] was “binds” in each case.

B2: MYRF-1, endogenous (protein, UniProt G5EFI7 1-931)
chain: T2 sequence
B2: in assay [1], the binding entry is reported as “binds”.
